Measurements published in article doi:10.1101/2020.11.06.371260.
Results are given in words; binding and its absence hold for the method and conditions named. For some assays here: Binding seen in cells or lysates may run through a third protein. Some binding calls cover weakened binding; strength is not graded here. Sequences can lack the tags named with a protein.

Assays:
[1] = target: T1, AtEXO70B1, yeast two-hybrid fusion (Arabidopsis thaliana) (UniProt Q9FGH9); assay: two-hybrid
T1 sequence: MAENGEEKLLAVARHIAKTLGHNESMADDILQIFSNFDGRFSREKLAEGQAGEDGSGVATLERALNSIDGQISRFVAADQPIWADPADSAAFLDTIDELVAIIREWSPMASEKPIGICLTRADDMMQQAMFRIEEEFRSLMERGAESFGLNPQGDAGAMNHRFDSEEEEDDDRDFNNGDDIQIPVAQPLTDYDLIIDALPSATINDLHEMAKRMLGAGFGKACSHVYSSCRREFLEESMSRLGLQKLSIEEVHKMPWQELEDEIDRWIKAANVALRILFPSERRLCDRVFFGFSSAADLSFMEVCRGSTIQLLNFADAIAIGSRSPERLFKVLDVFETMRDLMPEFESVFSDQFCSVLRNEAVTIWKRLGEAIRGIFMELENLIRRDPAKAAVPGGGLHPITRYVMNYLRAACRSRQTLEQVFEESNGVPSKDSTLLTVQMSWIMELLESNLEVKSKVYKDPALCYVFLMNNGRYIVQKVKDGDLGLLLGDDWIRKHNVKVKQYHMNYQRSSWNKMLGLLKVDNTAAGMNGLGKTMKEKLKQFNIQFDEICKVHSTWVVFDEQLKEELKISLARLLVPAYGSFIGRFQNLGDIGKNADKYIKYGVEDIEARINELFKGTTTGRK

[2] = target: AtEXO70B1-AB truncation (1 to 388 amino acids), yeast two-hybrid fusion (Arabidopsis thaliana) (UniProt Q9FGH9); assay: two-hybrid
[3] = target: T2, Arabidopsis SEC15B, yeast two-hybrid fusion (Arabidopsis thaliana) (UniProt F4JHH5); assay: two-hybrid
T2 sequence: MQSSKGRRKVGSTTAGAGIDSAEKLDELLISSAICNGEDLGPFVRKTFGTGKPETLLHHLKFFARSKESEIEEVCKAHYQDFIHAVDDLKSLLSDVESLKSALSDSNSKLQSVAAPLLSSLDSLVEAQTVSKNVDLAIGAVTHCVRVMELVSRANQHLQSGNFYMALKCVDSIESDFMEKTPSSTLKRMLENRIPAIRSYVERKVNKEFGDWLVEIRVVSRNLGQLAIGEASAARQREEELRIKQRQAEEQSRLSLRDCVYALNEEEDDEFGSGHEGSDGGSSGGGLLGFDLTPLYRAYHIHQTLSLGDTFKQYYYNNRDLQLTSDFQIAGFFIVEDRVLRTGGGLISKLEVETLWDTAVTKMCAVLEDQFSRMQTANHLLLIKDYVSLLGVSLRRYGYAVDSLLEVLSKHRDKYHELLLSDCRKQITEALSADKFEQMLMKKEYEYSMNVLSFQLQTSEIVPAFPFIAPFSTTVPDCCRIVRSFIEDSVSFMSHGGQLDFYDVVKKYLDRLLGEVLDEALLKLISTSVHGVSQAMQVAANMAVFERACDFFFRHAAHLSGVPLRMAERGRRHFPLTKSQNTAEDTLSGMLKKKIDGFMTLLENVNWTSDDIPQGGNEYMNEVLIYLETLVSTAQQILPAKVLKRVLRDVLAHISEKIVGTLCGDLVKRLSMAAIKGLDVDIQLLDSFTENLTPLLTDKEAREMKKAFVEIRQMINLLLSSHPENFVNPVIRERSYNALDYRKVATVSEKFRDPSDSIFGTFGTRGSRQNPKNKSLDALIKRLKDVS

[4] = target: T3, AtEXO70B1 fused C-terminally with nVENUS (Arabidopsis thaliana) (UniProt Q9FGH9); assay: split reporter
T3 sequence: T1 sequence

[5] = target: T4, Arabidopsis SEC15B, BiFC fusion (Arabidopsis thaliana) (UniProt F4JHH5); assay: split reporter
T4 sequence: T2 sequence

B1: Arabidopsis SEC5A, yeast two-hybrid fusion (protein, UniProt Q8S3U9 1-1090)
chain: MSSDSNDLDEDELLQMALKEQAKRDLTYQKPPSSSARKPVANLVQQPRQQKPVAAAAAPPKKSAAAVRKPSMDEDEESEVELLSISSGDDDLEREREIGGSSGGAGRGRGSDVREKGRARKEDDGAWDGGEPDCWKRVNEAELARRVRDMRESRTAPVVQKVEGKAPAPGKKVALTSLQSLPRGMECIDPLKLGIIDNKTLRLITESSGSPSKAEKVDNTLREKLVYFSDHFDPKLFLSRIHQDTTAADLEAGALGLKSDLKGRNLQRKQLVKDNFDCFVSCKTTIDDIESKLKRIEEDPEGSGTTHLFNCMKSVTSRANLAFEPLFERQAQAEKIRSVQGMLQRFRTLFNLPSIIRSSISKGEYDLAVREYKKAKSIALPSHVNILKRVLEEVEKVMLEFKGTLYKSMEDPKIDFTSLENTVRLLLELEPESDPVWHYLNVQNHRIHGLLEKCTYDHEARVEILRNDTHEKAISDAKWQQIQQNGVSYSDTASSNENNAVQVDLQSVEFPSEEIDILKGRYIKRLTAVLVHHIPVFWKTAISIFSGKFAKSSQVTDTSANKAEEKVTEARYSTHSLEEVAGMIRKTISVYEAKVNSTFCDFDESCILRPFMSDAINEVSKACQAFEAKESTPHSAVVALRKIQAEITKIYIQRLCSWMRASTEGISKEETWIPVSILERNRSPYAISYLPLAFRSVIVSGMEQVNLMILSVKSEAAKSEDMFAQIEEIIISVRLAFLNCFLDFAAHLEQIGADLSQSTSRQDNWKNGYSDEHQEEPSANTYGSVIDPHRRLLMVLSNIGYCKDELASELYNKFKYTWLQSRDKNEDSSDLQDLIMSFSGLGEKVLEHYTFAKANLIRTAATNYLLDSGIQWGSAPQVKGIRDAAVELLHTLVAVHAEVFAGAKPLLDKILGVLIEGLIDTFLSVVEENRSSDLRSIDANGFCQLMFELEYFETVLYSYFTSAATESLKSLQGTVLEIAIESISEAVETPGHNRRPTRGSEDTVSDDKQSVSADDLLALTKQCSNELLQQELERTRVNTACFAESAPLESTPPLPKATYSSFRGSMDSPSRNYRGSQSSGSPINARPRRR
[1]
  binding: binds
[2]
  binding: binds

B2: Arabidopsis EXO84B, yeast two-hybrid fusion (protein, UniProt Q9LTB0 1-752)
chain: MAAKTARSKATPTKENGVRVEEGLSLFKSDKFDADAYVQSKCSINEKDIKQLCSYLLDLKRASAEEMRRSVYANYPAFIRTSKEISDLEGELSSIRNLLSTQATLIHGLADGVNIDDDKVSDESLANGLLNFEDNGLSDLEKWATEFPDHLDALLAERRVDEALAAFDEGEILVSQANEKHTLSSSVLSSLQFAIAERKQKLADQLAKAACQPSTRGGELRSAIAALKRLGDGPRAHTVLLDAHFQRYQYNMQSLRPSSTSYGGAYTAALSQLVFSAISQASSDSLGIFGKEPAYSSELVTWATKQTEAFSLLVKRHALASSAAAGGLRAAAECAQIALGHCSLLEARGLSLCPVLLKHFKPIVEQALEANLKRIEENTAAMAAADDWVLTSPPAGSRHASTAFQNKLTSSAHRFNLMVQDFFEDVGPLLSMQLGSKALEGLFRVFNSYVDVLVRALPGSIEEEDPNFESSCNKIVQMAETEANQLALLANASLLADELLPRAAMKLSLDQTGQRTDDLRRPLDRQNRNPEQREWKRRLLSTVDKLKDAFCRQHALDLIFTEEGDSHLSADMYVNIDENGEDVDFFPSLIFQELFAKLNRMASLAADMFVGRERFAISLLMRLTETVILWLSGDQSFWDDIEEGPRPLGPLGLRQLYLDMKFVICFASQGRYLSRNLHRGTNEIISKALAAFTATGIDPYSELPEDDWFNDICVDAMERLSGKTKGNNGDVHSPTASVSAQSVSSARSHGSY
[1]
  binding: binds
[2]
  binding: binds
[3]
  binding: binds

B3: AtEXO70B1, yeast two-hybrid fusion (protein, UniProt Q9FGH9 1-624)
chain: T1 sequence
[1]
  binding: binds

B4: Arabidopsis SEC15B, yeast two-hybrid fusion (protein, UniProt F4JHH5 1-787)
chain: T2 sequence
[2]
  binding: binds

B5: Arabidopsis SEC5A, BiFC fusion (protein, UniProt Q8S3U9 1-1090)
chain: B1 chain
[4]
  binding: binds

B6: Arabidopsis EXO84B, BiFC fusion (protein, UniProt Q9LTB0 1-752)
chain: B2 chain
[4]
  binding: binds
[5]
  binding: binds

B7: AtEXO70B1 fused C-terminally with nVENUS (protein, UniProt Q9FGH9 1-624)
chain: T1 sequence
[4]
  binding: binds
